This is one part of the list. Single values are uncertain, as repeats are few or missing.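 The apoptosis fraction was the count of cleaved-PARP antibody-stained nuclei relative to all DNA-stained nuclei, imaged in 1,536-well plates. Screening doses were set so most cells survived, and baseline and induced cleaved-PARP levels vary greatly across cell lines.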
These molecules were tested on A2058 (assay: cleaved PARP positive nuclei fraction relative to DMSO control; melanoma cells; higher = more apoptosis). Details: library dose: low library concentration; 72 h.
With `CC(=O)O[C@@]12CO[C@@H]1C[C@H](O)[C@@]1(C)C(=O)[C@H](O)C3=C(C)[C@@H](OC(=O)[C@H](O)[C@@H](NC(=O)OC(C)(C)C)c4ccccc4)C[C@@](O)([C@@H](OC(=O)c4ccccc4)[C@H]21)C3(C)C` [Docetaxel] + CCCCCCCCCCCC1=C(O)C(=O)C=C(O)C1=O [Embelin] (first compound 0.0001 µM, partner dose 1.2 µM) the “cleaved PARP positive nuclei fraction” value was 2510%.
For `NC1(c2ccc(-c3nc4ccn5c(=O)[nH]nc5c4cc3-c3ccccc3)cc2)CCC1` + CC(C)CCN1c2nc(Nc3cc(F)c(O)c(F)c3)ncc2N(C)C(=O)C1C [BID1870] (first compound 0.4 µM, partner dose 0.2 µM), the “cleaved PARP positive nuclei fraction” value was 92.8%.
In the case of `CS(=O)(=O)c1ccc(C(=O)Nc2ccc(Cl)c(-c3ccccn3)c2)c(Cl)c1` [vismodegib] + CCCCCCCCCCCC1=C(O)C(=O)C=C(O)C1=O [Embelin] (first compound 1 µM, partner dose 1.2 µM), the “cleaved PARP positive nuclei fraction” value is reported as 55.7%.
For `COc1ccc(C2=N[C@@H](c3ccc(Cl)cc3)[C@@H](c3ccc(Cl)cc3)N2C(=O)N2CCNC(=O)C2)c(OC(C)C)c1` [Nutlin-3] + COc1ccc(-c2ccc3c(N4CCOCC4)nc(N4C[C@@H](C)O[C@@H](C)C4)nc3n2)cc1CO [KU0063794] (first compound 0.1 µM, partner dose 0.02 µM), the “cleaved PARP positive nuclei fraction” value was 22.6%.
`Cn1cnc2c(F)c(Nc3ccc(Br)cc3Cl)c(C(=O)NOCCO)cc21` [selumetinib] + CC(C)CCN1c2nc(Nc3cc(F)c(O)c(F)c3)ncc2N(C)C(=O)C1C [BID1870] (first compound 0.015 µM, partner dose 0.2 µM) was tested, and the “cleaved PARP positive nuclei fraction” value was 187%.
